Consider 39 compounds from the supplement of paper PMC8256030.

Where “and” joins values, the source holds several entries; their conditions need not be identical. Equal entries are not always repeated. The list shows a part of the results. This data set is noisy: repeats of one test often differ as much as different tests do.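 HEK293T cells were given each compound shortly before transfection with a reporter in which red mCherry is followed by the SARS-CoV-2 frameshift element and then GFP in the −1 frame, so GFP appears only after frameshifting.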

In this test the test system is HEK293T. Nature of the test: percent viability (nuclei count) relative to control; higher = more viable cells. The note with it: 10 µM; 24 h.
With `CC(C)(S)[C@@H](N)C(=O)O` [penicillamine], the percent viability was found to be 100%.

Take `CCCCC(O)c1ccccc1` (centres undefined) [fenipentol]: the percent viability was 342%.

Take `N[C@@H](Cc1ccc(O)cc1)C(=O)O`: the percent viability turned out to be 109%.

For `CC(C)c1nc(N(C)S(C)(=O)=O)nc(-c2ccc(F)cc2)c1/C=C/[C@@H](O)C[C@@H](O)CC(=O)O`, the percent viability is 302%.

Regarding `C[C@@H]1C[C@H]2[C@@H]3C[C@H](F)C4=CC(=O)C=C[C@]4(C)[C@@]3(F)[C@@H](O)C[C@]2(C)[C@@]1(OC(=O)c1ccco1)C(=O)SCF` [fluticasone furoate], the percent viability amounted to 247%.

In the case of `COc1ccc(CC(C)(C)NC[C@H](O)c2cc(O)cc3c2OCC(=O)N3)cc1` [Olodaterol], the percent viability was 147% and 292%.

As to `COc1cnc(NS(=O)(=O)c2ccc(N)cc2)nc1` [sulfametoxydiazine], the percent viability was 288%.

In the case of `CO/N=C(\C(=O)N[C@@H]1C(=O)N2C(C(=O)OC(C)OC(C)=O)=C(COC(N)=O)CS[C@H]12)c1ccco1` (some centres undefined), the percent viability was 240%.

On to `CCCCCCCCCCCCCCCC[N+](C)(C)CCN(Cc1ccc(OC)cc1)c1ncccn1` [tonzonium bromide], for which the percent viability was found to be 323%.

As to `COc1cc(/C=C/C(=O)N2CCCCCCC2)cc(OC)c1OC` [cinoctramide], the percent viability is 24.3%.

Regarding `Cc1cccc(C)c1NC(=O)CN1CCCCCC1` [pincainide], the percent viability was found to be 122%.

`COc1cc([C@@H]2[C@H]3CO[C@@]4(O)C(=O)[C@@H]2C=C([C@H]2Oc5cc(O)cc(O)c5C(=O)[C@@H]2O)[C@@H]34)ccc1O` [Silydianin]: the percent viability was 134%.

With `COc1ccc2cc([C@H](C)C(=O)O)ccc2c1` [Naproxen], the percent viability stood at 311%.

As for `CN1C(=O)CC(c2ccccc2)C1=O` (centres undefined) [phensuximide], the percent viability came out at 299%.

For the compound `CC(C)C1O[C@H](CN)[C@@H](CN)O1.O=C([O-])CC(=O)[O-].[Pt+2]` [eptaplatin], the percent viability was determined as 250%.

Turning to `NCCCC(O)(P(=O)(O)O)P(=O)(O)O` [Alendronate], the percent viability is 203%.

In the case of `Nc1ccn([C@@H]2O[C@H](CO)[C@@H](O)C2(F)F)c(=O)n1` [gemcitabine], the percent viability was determined as 210%.

In the case of `CN(C)CCO/N=C(/C=C/c1ccc(O)cc1)c1ccccc1F` [eplivanserin], the percent viability worked out at 209%.

Regarding `CC(C)OC(=O)[C@H](C)N[P@](=O)(OC[C@H]1O[C@@H](n2ccc(=O)[nH]c2=O)[C@](C)(F)[C@@H]1O)Oc1ccccc1` [Sofosbuvir], the percent viability amounted to 277%.

With `Cn1cc([S+](C)[O-])c(=O)c2ccc(F)cc21` (centres undefined) [flosequinan], the percent viability worked out at 174%.

For the compound `CN(CCc1ccccc1)CCc1ccccc1` [demelverine], the percent viability is 192%.

As for `O=C1N(c2ccccc2)c2ccccc2C1(Cc1ccncc1)Cc1ccncc1` [linopirdine], the percent viability was found to be 196%.

Regarding `CCCCN(CCCC)CC(O)c1cc(Cl)cc2c1-c1ccc(Cl)cc1/C2=C/c1ccc(Cl)cc1` (centres undefined) [Benflumetol], the percent viability was 279%.

For `COc1ccc2cccc(CCNC(C)=O)c2c1` [agomelatine], the percent viability stood at 322%.

On to `c1ccc(CN(CC2=NCCN2)c2ccccc2)cc1` [antazoline], for which the percent viability was found to be 382%.

With `CC(=O)O[C@]1(C(C)=O)CC[C@H]2[C@@H]3C=C(C)C4=CC(=O)CC[C@]4(C)[C@H]3CC[C@@]21C` [Megestrol Acetate], the percent viability amounted to 147%.

In the case of `NC(=O)CN1Cc2ccccc2OC1=O` [caroxazone], the percent viability is 178%.

As for `C[C@H]1[C@H](OC(=O)CCC(=O)O)O[C@@H]2O[C@@]3(C)CC[C@H]4[C@H](C)CC[C@@H]1[C@@]24OO3` [Artesunate], the percent viability is 53.8%.

With `NC(=O)c1ccccc1O` [salicylamide], the percent viability amounted to 135%.

In the case of `CCN(CC)CCOC(=O)C(c1ccccc1)c1ccccc1` [adiphenine], the percent viability is 113%.

As to `COc1ccc(C2CNC(=O)NC2)cc1O[C@H]1C[C@@H]2CC[C@H]1C2` [atizoram], the percent viability came to 135%.

Take `CCOC(=O)C1=C(COCCN)NC(C)=C(C(=O)OC)C1c1ccccc1Cl` (centres undefined) [amlodipine]: the percent viability is 182% and 436%.

Take `O=c1c(I)c[nH]cc1I` [iopydone]: the percent viability came to 218%.

`Nc1nc2c([nH]1)c(=O)n(CC1CC1)c(=O)n2CC1CC1` [cipamfylline]: the percent viability was found to be 78.9%.

As for `O=C(Nc1cccc2c(=O)cc(-c3nnn[nH]3)oc12)c1ccc(OCCCCc2ccccc2)cc1` [Pranlukast], the percent viability was 375% and 282%.

`NC(Cc1ccccc1)C(=O)O` (centres undefined): the percent viability was 185%.

As for `CN[C@@H]1[C@H](O)[C@H](NC)[C@H]2O[C@@]3(O)C(=O)C[C@@H](C)O[C@H]3O[C@@H]2[C@H]1O`, the percent viability was 196%.

With `Cc1ccsc1/C=C/C1=NCCCN1C`, the percent viability turned out to be 304%.

Turning to `O=c1cc[nH]c(=S)[nH]1`, the percent viability worked out at 219%.
